Source: PubChem BioAssay AID1259425 (University of Nebraska Medical Center, 2018)
Shown is one part, drawn at random, of about 14,000 reagents tested. Not all columns of the deposit are shown. No sequences are given here. Not stated in the record: the time to read-out.

Test: 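Compare each knockdown with KSR1 silencing using changes in marker transcripts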 (primary screen)
System: HCT116 human colon cancer cells
Reagent: siRNA pool against human genes, 50 nM siRNA
Measurement: 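mRNA of six signature genes measured together by branched-DNA assay after 50 nM siRNA pool, blank removed, divided by geometric mean of two housekeeping genes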
Reading the numbers: BNIP3L mRNA: higher = more BNIP3L transcript after knockdown; NDRG1 mRNA: higher = more NDRG1 transcript after knockdown

What is on record for GDF9 (growth differentiation factor 9)?
BNIP3L mRNA, set 1: 0.0561; NDRG1 mRNA, set 1: 0.232

For ARL17A (ARF like GTPase 17A), what was measured?
BNIP3L mRNA, set 1: 0.0996; NDRG1 mRNA, set 1: 0.168

With HDAC3 (histone deacetylase 3), how do the results read?
BNIP3L mRNA, set 1: 0.156; NDRG1 mRNA, set 1: 0.237

What is on record for IFNA17 (interferon alpha 17)?
BNIP3L mRNA, set 1: 0.0743; NDRG1 mRNA, set 1: 0.239

With C7 (complement C7), what was measured?
BNIP3L mRNA, set 1: 0.163; NDRG1 mRNA, set 1: 0.185

For CNGB3 (cyclic nucleotide gated channel subunit beta 3), what does the deposit list?
BNIP3L mRNA, set 1: 0.127; NDRG1 mRNA, set 1: 0.15

What did the screen give for TRAF3IP3 (TRAF3 interacting protein 3)?
BNIP3L mRNA, set 1: 0.16; NDRG1 mRNA, set 1: 0.618

How did the screen score RIF1 (replication timing regulatory factor 1)?
BNIP3L mRNA, set 1: 0.178; NDRG1 mRNA, set 1: 0.402

How did the screen score ZNF646 (zinc finger protein 646)?
BNIP3L mRNA, set 1: 0.0858; NDRG1 mRNA, set 1: 0.26

With LY86 (lymphocyte antigen 86), what does the deposit list?
BNIP3L mRNA, set 1: 0.114; NDRG1 mRNA, set 1: 0.383

With NEDD8 (NEDD8 ubiquitin like modifier), how do the results read?
BNIP3L mRNA, set 1: 0.0896; NDRG1 mRNA, set 1: 0.205

For KRT37 (keratin 37), how do the results read?
BNIP3L mRNA, set 1: 0.166; NDRG1 mRNA, set 1: 0.42

2 entries from above, set out differently.
{"Target gene": "ARL17A (ARF like GTPase 17A)", "BNIP3L mRNA, set 1": 0.0996, "NDRG1 mRNA, set 1": 0.168}
{"Target gene": "HDAC3 (histone deacetylase 3)", "BNIP3L mRNA, set 1": 0.156, "NDRG1 mRNA, set 1": 0.237}
